The list shows a part of the results. Further columns of the screen follow, without active or inactive calls. The list favours compounds with an active or inconclusive main result. Potencies come from curve fits of mixed quality, noted in brackets.
Experiment: qHTS Assay for Lipid Storage Modulators in Drosophila S3 Cells;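 as to cell number change: cells counted by Cell Tracker Red CMTPX staining in the red channel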
Conditions: BODIPY lipid droplet fluorescence, 18-24 h; for cell number change: measured here: cell count max response, cells fed with added oleic acid
Method in brief: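 Drosophila S3 cells loaded with oleic acid (400 uM, as added) and compounds at several concentrations; lipid droplets imaged by 488-nm laser-scanning cytometry, 500–530 nm intensity and object ratio to cell channel. Percent activity normalized to 20 uM Triacsin C.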

[1] = measured here: cell number channel AC50, cells fed with added oleic acid
[2] = measured here: lipid fluorescence (Fed channel) AC50, cells fed with added oleic acid

SMILES	cell number change [%]	AC50 [1]	AC50 [2]
COC(=O)c1c(NC(=O)Cn2cnc([N+](=O)[O-])n2)sc2c1CCC(C)C2 (stereo not drawn)	12.1	4.11 µM [falling, single point]	–
Cc1ccc(S(=O)(=O)Nc2ccc(N3CCOCC3)cc2)cc1C	-5.71	–	–
COc1ccccc1NC(=O)Cn1c(=O)n(CCc2c[nH]c3ccccc23)c(=O)c2cccnc21	-10.4	–	0.461 µM [rising, full curve, poor fit]
Cc1ccc(C2=N/C(=C\c3cccnc3)C(=O)O2)cc1	50	16.4 µM [rising, single point]	–
COc1ccc(C(=O)OCC(=O)Nc2ccc(N3CCOCC3)cc2)cc1	24.5	–	29.1 µM [rising, single point]
CC(OC(=O)c1cc(=O)[nH]c2ccccc12)C(=O)N1C(C)CCCC1C (stereo not drawn)	10.6	6.51 µM [falling, single point]	–
Cc1nnc(NC(=O)c2c(F)cccc2F)s1	5.39	–	6.51 µM [falling, partial curve, poor fit]
COc1ccc(Cn2c(SCc3ccccc3C)nc3cc(OC)c(OC)cc3c2=N)cc1	-87.2	–	29.1 µM [falling, single point]
COc1ccccc1NS(=O)(=O)c1ccc(N/N=C(\C)C(C)C)c([N+](=O)[O-])c1	-37.6	18.4 µM [falling, single point]	18.4 µM [falling, single point]
CCC1=NN(C(=O)COc2ccccc2)C(O)(c2ccc(Br)cc2)C1 (stereo not drawn)	-30	–	–
CCCn1c(C(O)c2cccc(OC)c2)nc2ccccc21 (stereo not drawn)	-1.4	–	–
CCOc1ccccc1NC(=O)CCN(c1ccc(C)cc1)S(=O)(=O)c1ccccc1	-21.6	–	14.6 µM [falling, partial curve, poor fit]
CSC1=N/C(=C/c2cccnc2)C(=O)N1Cc1ccccc1	0.209	0.58 µM [rising, full curve, poor fit]	–
CC[N+](C)(CC)CCC/C(=N/O)C(O)(c1ccccc1)c1ccccc1	-18	–	0.082 µM [falling, full curve]
O=C(/C=C/c1ccco1)Nc1ccc2c(c1)OCCO2	7.04	–	0.58 µM [falling, single point]
CN1CCN(C(=O)CCc2nc3ccccc3n2-c2ccccc2)CC1	0.829	–	16.4 µM [falling, single point]
CC(C)N(CCNCC(O)COc1ccc(C(C)(C)c2ccccc2)cc1)C(C)C (stereo not drawn)	8.61	–	–
COc1cc2c(C#N)c(N3CCc4ccccc4C3)nc(N)c2c(N)n1	-86.3	29.1 µM [falling, single point]	–
COc1ccccc1NC(=O)CNC(=O)Cn1c(C)cc2ccccc2c1=O	32.5	–	29.1 µM [rising, single point]
Cc1c(Cl)cccc1NC(=O)CC1Sc2ccccc2NC1=O (stereo not drawn)	3.91	–	1.3 µM [rising, full curve, poor fit]
O=S(=O)(Nc1cc(S(=O)(=O)N2CCCC2)ccc1O)c1ccc(Cl)s1	-57	5.8 µM [falling, full curve, poor fit]	–

Quoted from the entries so far (13 entries):
SMILES	cell number change [%]	AC50 [1]	AC50 [2]
COc1ccccc1NS(=O)(=O)c1ccc(N/N=C(\C)C(C)C)c([N+](=O)[O-])c1	-37.6	18.4 µM [falling, single point]	18.4 µM [falling, single point]
CCC1=NN(C(=O)COc2ccccc2)C(O)(c2ccc(Br)cc2)C1 (stereo not drawn)	-30	–	–
CCCn1c(C(O)c2cccc(OC)c2)nc2ccccc21 (stereo not drawn)	-1.4	–	–
CCOc1ccccc1NC(=O)CCN(c1ccc(C)cc1)S(=O)(=O)c1ccccc1	-21.6	–	14.6 µM [falling, partial curve, poor fit]
CSC1=N/C(=C/c2cccnc2)C(=O)N1Cc1ccccc1	0.209	0.58 µM [rising, full curve, poor fit]	–
CC[N+](C)(CC)CCC/C(=N/O)C(O)(c1ccccc1)c1ccccc1	-18	–	0.082 µM [falling, full curve]
O=C(/C=C/c1ccco1)Nc1ccc2c(c1)OCCO2	7.04	–	0.58 µM [falling, single point]
CN1CCN(C(=O)CCc2nc3ccccc3n2-c2ccccc2)CC1	0.829	–	16.4 µM [falling, single point]
CC(C)N(CCNCC(O)COc1ccc(C(C)(C)c2ccccc2)cc1)C(C)C (stereo not drawn)	8.61	–	–
COc1cc2c(C#N)c(N3CCc4ccccc4C3)nc(N)c2c(N)n1	-86.3	29.1 µM [falling, single point]	–
COc1ccccc1NC(=O)CNC(=O)Cn1c(C)cc2ccccc2c1=O	32.5	–	29.1 µM [rising, single point]
Cc1c(Cl)cccc1NC(=O)CC1Sc2ccccc2NC1=O (stereo not drawn)	3.91	–	1.3 µM [rising, full curve, poor fit]
O=S(=O)(Nc1cc(S(=O)(=O)N2CCCC2)ccc1O)c1ccc(Cl)s1	-57	5.8 µM [falling, full curve, poor fit]	–

Later entries:

SMILES	cell number change [%]	AC50 [1]	AC50 [2]
COc1ccc(Nc2nnc(SCC(=O)c3cc4ccccc4o3)s2)cc1	-6.8	–	14.6 µM [falling, partial curve]
O=C(CSc1nnc(-c2ccccn2)n1Cc1ccco1)c1ccc(Cl)cc1	86.3	16.4 µM [rising, partial curve]	–
CC(=O)SC1CC2=CC(=O)CCC2(C)C2CCC3(C)C(CCC34CCC(=O)O4)C12 (stereo not drawn)	-19.2	0.651 µM [falling, full curve, poor fit]	20.6 µM [falling, partial curve, poor fit]
CN1CCN(C(=O)c2ccc(CSc3nc4ccncc4n3Cc3ccc(F)cc3)cc2)CC1	12.7	–	0.651 µM [falling, full curve, poor fit]
CCOC(=O)C1CCCN(C(=O)Cc2ccc(OC)c(OC)c2)C1 (stereo not drawn)	14.1	–	8.2 µM [rising, partial curve]
O=C(c1ccccc1Oc1ccc(C(F)(F)F)cc1[N+](=O)[O-])N1CCOCC1	68.7	29.1 µM [rising, single point]	29.1 µM [rising, single point]
CCOc1ccc(C2NCCc3cc(OC)c(OC)cc32)cc1OC (stereo not drawn)	17.8	–	–
c1ccc2cc(Cn3ccnc3)ccc2c1	-4.14	–	–
CCCC(=O)n1nc(NCc2ccc(OC)cc2)nc1NCc1ccc(OC)cc1	-42.5	–	–
COc1cc(C)c(-c2cc(C(=O)O)c(C)o2)cc1C(C)C	79.9	13 µM [rising, partial curve]	–
O=C(Nc1cccnc1Cl)c1cc(-c2ccc(F)cc2)on1	–	–	6.51 µM [rising, single point]
Cc1nn(CC#N)c(=O)n1N(C)c1ncc(C(F)(F)F)cc1Cl	-20.2	–	0.82 µM [falling, full curve]
CCN(CC)C(=O)c1cccc(NC(=O)C2=COCCO2)c1	-3.47	0.366 µM [falling, single point]	0.259 µM [falling, full curve, poor fit]
COc1ccc(-n2ncc(C(=O)N3CCN(c4ccc(F)cc4)CC3)c2C)cc1	21.8	0.517 µM [rising, full curve, poor fit]	0.651 µM [rising, partial curve]
CC(=O)c1cccc(S(=O)(=O)Nc2cccnc2)c1	21	–	–
Cc1ccc(NC(=O)NC2CCCCCCC2)cc1	-22.5	–	0.103 µM [falling, full curve, poor fit]
O=c1c2ccccc2nc(/C=C/c2ccccc2)n1CCCO	6.94	–	29.1 µM [rising, partial curve, poor fit]
CCCNC(=O)C1CN(S(=O)(=O)c2ccc(Cl)s2)c2ccccc2O1 (stereo not drawn)	-4.16	–	29.1 µM [rising, single point]
Cc1ccc(S(=O)(=O)N2CCN(C(=O)COC(=O)COc3ccccc3)CC2)cc1	46.6	11.6 µM [rising, partial curve]	13 µM [rising, partial curve]
CCc1ccc(OCC(=O)NC(NC(=S)Nc2ccccc2)C(Cl)(Cl)Cl)cc1 (stereo not drawn)	16.2	–	0.058 µM [rising, full curve, poor fit]
COc1cc(/C=C2\SC(=Nc3ccccc3)NC2=O)cc(Cl)c1O	-95.1	–	–

SMILES	cell number change [%]	AC50 [1]	AC50 [2]
COC(=O)C1(C(F)(F)F)N=C(N(C)C)OC(N(C)C)=N1	-27.2	3.66 µM [falling, full curve, poor fit]	3.66 µM [falling, full curve]
CCCCC(=O)NC(NC(=S)N1CCCCCC1)C(Cl)(Cl)Cl (stereo not drawn)	5.57	–	18.4 µM [falling, single point]
CC(C)c1ccc(NC(=O)c2ccc3c(c2)CCN3S(C)(=O)=O)cc1	39.7	23.1 µM [rising, single point]	–
COc1ccc(OC)c(S(=O)(=O)N2CCN(C34CC5CC(CC(C5)C3)C4)CC2)c1	2.3	–	20.6 µM [rising, single point]
Cc1ccc(NC(=O)c2ccccc2NC(=O)c2cccs2)cc1	25.6	–	–
Nc1ccc2nc(SCc3ccc([N+](=O)[O-])cc3)sc2c1	-15.3	–	6.51 µM [rising, partial curve]
CCCc1nnc(NC(=O)CSc2nnc(-c3ccco3)n2C)s1	24.3	–	–
O=C(COc1ccccc1F)Nc1ccccc1C(=O)NC1CC1	-8.78	1.84 µM [falling, partial curve]	–
Cc1cccc2sc(NNC(=O)c3cc(=O)c4ccccc4o3)nc12	10.1	–	–
S=C(NCCN1CCOCC1)NC1CCCC1	-53.9	20.6 µM [falling, partial curve, poor fit]	–
COc1ccccc1NC(=O)CSc1nnc(-c2ccncc2)o1	-59.2	29.1 µM [falling, single point]	–
O=C(Cn1[nH]c(=O)c2ccccc2c1=O)NC1CCN(Cc2ccccc2)CC1	-17.9	–	2.91 µM [falling, full curve]
O=C(CSc1nnc(C2CC2)n1Cc1ccccc1)NCc1ccccc1	-2.06	–	–
CN1CCN(C(=O)c2cccc(S(=O)(=O)N3CCCC3)c2)CC1	–	0.651 µM [falling, full curve]	0.731 µM [falling, full curve]
COc1ccc(C(=O)Nc2ccccc2NC(=O)c2ccco2)c(OC)c1	23.5	–	29.1 µM [falling, single point]
COc1ccc2c(c1[N+](=O)[O-])CCC/C2=N/OC(=O)c1ccccc1SC	-3.63	–	–
CN(Cc1ccccc1)C(=O)CCCn1c(=O)[nH]c2cc(Cl)ccc2c1=O	-0.223	3.26 µM [rising, partial curve, poor fit]	16.4 µM [falling, partial curve]
COC(=O)c1cc(OC)c(OC)cc1NC(=S)N1CCN(C/C=C/c2ccccc2)CC1	15.7	–	0.411 µM [rising, single point]
COc1ccc(Cl)cc1NC(=O)CN(C)C(=O)Cn1[nH]c(=O)c2ccccc2c1=O	-1.46	–	29.1 µM [rising, single point]
CNC(=O)NC(=O)CSc1nnc(C(F)(F)F)n1C	-15.1	–	2.59 µM [falling, partial curve]
COc1cccc(N2CCN(c3ccc4nnc(CCC(=O)Nc5ccc(F)cc5)n4n3)CC2)c1	-3.54	–	–
